Experimental data from doi:10.1101/742544.
These are yes or no findings as the source states them, for the method shown. In cells and extracts the contact can be indirect. Some results given as binding are weak or reduced against the parent protein; the word gives no strength.

Amino acid sequences for entries named in this document (tags omitted). A change or cut given only in a name is not applied to a line headed by its entry. Chains listed by the source or under a name are the forms on record and can include a tag or linker. Residues count along the entry.
UniProt P01375, residues 77-233: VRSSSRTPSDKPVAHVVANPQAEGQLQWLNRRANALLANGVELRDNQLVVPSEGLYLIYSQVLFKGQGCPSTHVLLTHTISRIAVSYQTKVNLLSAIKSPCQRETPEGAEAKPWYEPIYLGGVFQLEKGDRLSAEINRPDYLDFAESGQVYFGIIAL
UniProt O88522: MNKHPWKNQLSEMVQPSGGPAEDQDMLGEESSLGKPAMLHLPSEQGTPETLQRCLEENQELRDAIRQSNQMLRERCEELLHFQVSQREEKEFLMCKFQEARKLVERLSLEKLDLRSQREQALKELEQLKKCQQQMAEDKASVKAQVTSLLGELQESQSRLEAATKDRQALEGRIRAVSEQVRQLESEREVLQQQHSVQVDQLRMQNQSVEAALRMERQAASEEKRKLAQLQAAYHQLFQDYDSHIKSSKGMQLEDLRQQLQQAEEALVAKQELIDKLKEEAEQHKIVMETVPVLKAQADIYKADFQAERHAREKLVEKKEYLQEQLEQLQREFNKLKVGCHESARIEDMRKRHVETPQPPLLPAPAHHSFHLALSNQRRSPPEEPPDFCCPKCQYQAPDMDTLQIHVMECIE
HOIP K778R (mouse, endogenous in Hoip^K778R/K778R knockin MEFs) (Q924T7-1, form named): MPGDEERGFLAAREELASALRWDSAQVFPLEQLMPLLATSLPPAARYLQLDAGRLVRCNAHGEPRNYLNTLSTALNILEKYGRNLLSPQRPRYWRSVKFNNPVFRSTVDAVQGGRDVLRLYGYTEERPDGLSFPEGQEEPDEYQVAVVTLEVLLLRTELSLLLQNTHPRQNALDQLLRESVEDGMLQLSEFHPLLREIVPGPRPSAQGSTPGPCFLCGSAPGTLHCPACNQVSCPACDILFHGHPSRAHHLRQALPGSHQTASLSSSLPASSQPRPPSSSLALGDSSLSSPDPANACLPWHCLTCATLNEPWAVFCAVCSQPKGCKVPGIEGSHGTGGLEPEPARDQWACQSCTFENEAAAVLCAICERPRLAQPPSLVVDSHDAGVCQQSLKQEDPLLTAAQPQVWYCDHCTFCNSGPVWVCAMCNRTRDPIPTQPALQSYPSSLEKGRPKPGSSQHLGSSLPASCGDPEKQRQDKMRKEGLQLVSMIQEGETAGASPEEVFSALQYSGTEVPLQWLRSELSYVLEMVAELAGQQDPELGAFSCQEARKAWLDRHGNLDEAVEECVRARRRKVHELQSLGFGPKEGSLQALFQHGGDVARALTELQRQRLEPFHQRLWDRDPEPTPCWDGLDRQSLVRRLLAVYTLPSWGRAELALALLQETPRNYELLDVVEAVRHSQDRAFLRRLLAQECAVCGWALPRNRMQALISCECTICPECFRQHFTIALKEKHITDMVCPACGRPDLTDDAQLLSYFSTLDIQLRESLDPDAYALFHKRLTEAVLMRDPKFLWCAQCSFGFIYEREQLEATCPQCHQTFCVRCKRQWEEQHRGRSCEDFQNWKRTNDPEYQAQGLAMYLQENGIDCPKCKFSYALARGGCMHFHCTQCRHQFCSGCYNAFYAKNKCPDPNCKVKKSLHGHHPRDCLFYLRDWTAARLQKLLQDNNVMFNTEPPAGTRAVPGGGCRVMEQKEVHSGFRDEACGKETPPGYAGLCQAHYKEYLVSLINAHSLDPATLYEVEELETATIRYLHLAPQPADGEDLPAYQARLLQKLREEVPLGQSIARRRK

Legend:
[1] = target: Recombinant human Flag-TNF (human) (UniProt P01375); assay: co-IP
[2] = target: T1, FADD (mouse, endogenous in MEFs) (mouse (endogenous in MEFs)) (UniProt Q61160); assay: co-IP
T1 sequence: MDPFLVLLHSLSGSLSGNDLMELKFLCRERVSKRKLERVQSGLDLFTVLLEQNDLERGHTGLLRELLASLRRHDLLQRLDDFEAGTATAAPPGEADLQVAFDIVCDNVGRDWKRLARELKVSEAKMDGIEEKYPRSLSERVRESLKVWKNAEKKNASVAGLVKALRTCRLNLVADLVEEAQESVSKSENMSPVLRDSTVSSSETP

Row | Substance | binding [1] | binding [2]
1 | NEMO (mouse, endogenous in MEFs) (from UniProt O88522 1-412) | binds | –
2 | HOIP K778R (mouse, endogenous in Hoip^K778R/K778R knockin MEFs) (from UniProt Q924T7-1 1-1066) (enzyme) | binds | binds
3 | HOIP (mouse, wild type, endogenous in Hoip+/+ MEFs) (from UniProt Q924T7-1 1-1066) (enzyme) | binds | –
